# Test results taken from patent US12474353B2, “Methods and materials for assessing and treating obesity” (Mayo Foundation for Medical Education and Research, priority 2017, dated 2025).
# At least one structure is not confirmed: it was looked up by name or label, or the drawing left a doubt.
# Assay type: in vivo, human
# Protocol: The applicability of obesity-related phenotypes as actionable biomarkers was tested in three pilot, proof of concept studies (see, e.g., Acosta et al., 2015 Gastroenterology 148:537-546; Acosta et al., 2015 Physiol Rep 3; and Halawi et al., 2017 Lancet Gastroenterol Hepatol 2:890-899). First, in a single-center, randomized, parallel-group, double-blind, placebo-controlled, 14-day study, the effects of Phentermine-topiramate-ER (PhenTop) (7.5/46 mg, orally, daily) on gastric emptying (GE) and volume, satiation, satiety, and fasting and postprandial GI hormones was evaluated in 24 obese adults. […] Subsequently, in a prospective, NIH-funded, randomized, placebo controlled clinical trial to study the effects of liraglutide 3 mg, SQ, over 16 weeks on obesity phenotypes and weight in 40 obese patients. […]
# A prospective, randomized clinical trial with liraglutide, a long-acting GLP-1 receptor agonist, was completed. […] At baseline and after 16 weeks' treatment, weight, gastric emptying of solids (GES, primary endpoint), large fasting gastric volumes, satiation, and satiety were measured. GES was also measured at 5 weeks. […] Effect of liraglutide on GES T1/2 at 5 and 16 weeks in the liraglutide group was analyzed by paired t-test. Seventeen participants were analyzed in the liraglutide group (n=19 randomized) and 18 in the placebo group (n=21 randomized).
structure (smiles),measurement,setting,value
CCCCCCCCCCCCCCCC(=O)N[C@@H](CCC(=O)NCCCC[C@H](NC(=O)[C@H](C)NC(=O)[C@H](C)NC(=O)[C@H](CCC(N)=O)NC(=O)CNC(=O)[C@H](CCC(=O)O)NC(=O)[C@H](CC(C)C)NC(=O)[C@H](Cc1ccc(O)cc1)NC(=O)[C@H](CO)NC(=O)[C@H](CO)NC(=O)[C@@H](NC(=O)[C@H](CC(=O)O)NC(=O)[C@H](CO)NC(=O)[C@@H](NC(=O)[C@H](Cc1ccccc1)NC(=O)[C@@H](NC(=O)CNC(=O)[C@H](CCC(=O)O)NC(=O)[C@H](C)NC(=O)[C@@H](N)Cc1cnc[nH]1)[C@@H](C)O)[C@@H](C)O)C(C)C)C(=O)N[C@@H](CCC(=O)O)C(=O)N[C@@H](Cc1ccccc1)C(=O)N[C@H](C(=O)N[C@@H](C)C(=O)N[C@@H](Cc1c[nH]c2ccccc12)C(=O)N[C@@H](CC(C)C)C(=O)N[C@H](C(=O)N[C@@H](CCCNC(=N)N)C(=O)NCC(=O)N[C@@H](CCCNC(=N)N)C(=O)NCC(=O)O)C(C)C)[C@@H](C)CC)C(=O)O [liraglutide],total body weight loss,"3 mg SQ, in 16 weeks, ± SD, control group 2.2±5 kg, p=0.0096",6.1 ± 2.8 kg
same,GES effects over time,from 5 to 16 weeks' treatment,tachyphylaxis
